The supplement of paper PMC8728848
This is one part of the list.

Legend:
Test in all cases: glycan array binding signal (z-score within array); higher = stronger binding
Conditions in all cases: glycan notation: IUPAC condensed, linker removed
[1] = biological target: Neu5Ac(a2-6)Gal(b1-4)GlcNAc(b1-2)Man(a1-3)[GlcNAc(b1-2)Man(a1-6)]Man(b1-4)GlcNAc(b1-4)GlcNAc
Outline: (§1)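 Arrays were curated from the Consortium for Functional Glycomics database, 3228 in total, and kept only where the protein sequence was available. Binding is expressed as a within-array Z-score. This score was averaged across arrays of the same protein sequence at different concentrations or buffers and across linkers, and negative values can be read as non-binding.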

[2] = biological target: Neu5Ac(a2-6)Gal(b1-4)GlcNAc(b1-2)Man(a1-3)[GlcNAc(b1-2)Man(b1-4)GlcNAc(b1-2)Man(a1-6)]Man(b1-4)GlcNAc(b1-4)GlcNAc
Outline: as §1

[3] = biological target: Neu5Ac(a2-6)Gal(b1-4)GlcNAc(b1-2)Man(a1-3)[Man(a1-6)]Man(b1-4)GlcNAc(b1-4)GlcNAc
Outline: as §1

[4] = biological target: Neu5Ac(a2-6)Gal(b1-4)GlcNAc(b1-2)Man(a1-3)[Neu5Ac(a2-6)Gal(b1-4)GlcNAc(b1-2)Man(a1-6)]Man(b1-4)GlcNAc(b1-4)GlcNAc
Outline: as §1

[5] = biological target: Neu5Ac(a2-6)Gal(b1-4)GlcNAc(b1-2)Man(a1-6)Man(b1-4)GlcNAc(b1-4)GlcNAc
Outline: as §1

[6] = biological target: Neu5Ac(a2-6)Gal(b1-4)GlcNAc(b1-2)Man(a1-6)[Gal(b1-4)GlcNAc(b1-2)Man(a1-3)]Man(b1-4)GlcNAc(b1-4)GlcNAc
Outline: as §1

[7] = biological target: Neu5Ac(a2-6)Gal(b1-4)GlcNAc(b1-2)Man(a1-6)[GlcNAc(b1-2)Man(a1-3)]Man(b1-4)GlcNAc(b1-4)GlcNAc
Outline: as §1

[8] = biological target: Neu5Ac(a2-6)Gal(b1-4)GlcNAc(b1-2)Man(a1-6)[Man(a1-3)]Man(b1-4)GlcNAc(b1-4)GlcNAc
Outline: as §1

[9] = biological target: Neu5Ac(a2-6)Gal(b1-4)GlcNAc(b1-3)Gal(b1-3)GlcNAc
Outline: as §1

[10] = biological target: Neu5Ac(a2-6)Gal(b1-4)GlcNAc(b1-3)Gal(b1-4)GlcNAc
Outline: as §1

[11] = biological target: Neu5Ac(a2-6)Gal(b1-4)GlcNAc(b1-3)Gal(b1-4)GlcNAc(b1-3)Gal(b1-4)GlcNAc
Outline: as §1

[12] = biological target: Neu5Ac(a2-6)Gal(b1-4)GlcNAc(b1-3)Gal(b1-4)[Fuc(a1-3)]GlcNAc(b1-3)Gal(b1-4)[Fuc(a1-3)]GlcNAc
Outline: as §1

[13] = biological target: Neu5Ac(a2-6)Gal(b1-4)GlcNAc(b1-3)GalNAc
Outline: as §1

[14] = biological target: Neu5Ac(a2-6)Gal(b1-4)GlcNAc6S
Outline: as §1

Neu5Ac(a2-6)GalNAc = biological target: Neu5Ac(a2-6)GalNAc
Outline: as §1

[15] = biological target: Neu5Ac(a2-6)GalNAc(b1-4)GlcNAc
Outline: as §1

[16] = biological target: Neu5Ac(a2-6)GlcNAc(b1-4)GlcNAc
Outline: as §1

[17] = biological target: Neu5Ac(a2-6)GlcNAc(b1-4)GlcNAc(b1-4)GlcNAc
Outline: as §1

Neu5Ac(a2-8)Neu5Ac = biological target: Neu5Ac(a2-8)Neu5Ac
Outline: as §1

[18] = biological target: Neu5Ac(a2-8)Neu5Ac(a2-3)Gal(b1-3)GalNAc(b1-4)[Neu5Ac(a2-8)Neu5Ac(a2-3)]Gal(b1-4)Glc
Outline: as §1

[19] = biological target: Neu5Ac(a2-8)Neu5Ac(a2-3)Gal(b1-4)Glc
Outline: as §1

[20] = biological target: Neu5Ac(a2-8)Neu5Ac(a2-3)[Gal(b1-3)GalNAc(b1-4)]Gal(b1-4)Glc
Outline: as §1

[21] = biological target: Neu5Ac(a2-8)Neu5Ac(a2-3)[GalNAc(b1-4)]Gal(b1-4)Glc
Outline: as §1

[22] = biological target: Neu5Ac(a2-8)Neu5Ac(a2-8)Neu5Ac
Outline: as §1

[23] = biological target: Neu5Ac(a2-8)Neu5Ac(a2-8)Neu5Ac(a2-3)Gal(b1-4)Glc
Outline: as §1

[24] = biological target: Neu5Ac(a2-8)Neu5Ac(a2-8)Neu5Ac(a2-3)[GalNAc(b1-4)]Gal(b1-4)Glc
Outline: as §1

[25] = biological target: Neu5Ac(a2-8)Neu5Ac(a2-8)Neu5Ac(a2-8)Neu5Ac(a2-3)[GalNAc(b1-4)]Gal(b1-4)Glc
Outline: as §1

[26] = biological target: Neu5Ac(b2-6)Gal(b1-4)GlcNAc
Outline: as §1

Neu5Ac(b2-6)GalNAc = biological target: Neu5Ac(b2-6)GalNAc
Outline: as §1

[27] = biological target: Neu5Ac9Ac(a2-3)Gal(b1-3)GlcNAc
Outline: as §1

[28] = biological target: Neu5Ac9Ac(a2-3)Gal(b1-4)GlcNAc
Outline: as §1

[29] = biological target: Neu5Ac9Ac(a2-6)Gal(b1-4)GlcNAc
Outline: as §1

[30] = biological target: Neu5Gc(a2-3)Gal(b1-3)GlcNAc
Outline: as §1

[31] = biological target: Neu5Gc(a2-3)Gal(b1-3)[Fuc(a1-4)]GlcNAc
Outline: as §1

Neu5Gc(a2-3)Gal(b1-4)Glc = biological target: Neu5Gc(a2-3)Gal(b1-4)Glc
Outline: as §1

[32] = biological target: Neu5Gc(a2-3)Gal(b1-4)GlcNAc
Outline: as §1

[33] = biological target: Neu5Gc(a2-3)Gal(b1-4)[Fuc(a1-3)]GlcNAc
Outline: as §1

[34] = biological target: Neu5Gc(a2-6)Gal(b1-4)GlcNAc
Outline: as §1

Neu5Gc(a2-6)GalNAc = biological target: Neu5Gc(a2-6)GalNAc
Outline: as §1

[35] = biological target: Neu5Gc(b2-6)Gal(b1-4)GlcNAc
Outline: as §1

B1: NanH (Corynebacterium diphtheriae), C6JSW6 (protein)
chain: MYSSNRTYSRAILGLSAVLTLSFTSLVAPVNAEEPETVVPATAELEGEVAATLPSAETGLLDAAPPKPVARGAAGDLQLPAVNEKEVFEEGRVIRAPEPDQSRCYRIPALVTAKNGDLLLAFDNRYGGGDGAKTWCRDAPYENMKRINRQNMQTDIQLYRSVDNGQSFEDFGYIAQGTADVRELSYTDPALVTDRTTGKIFAFFVRAYDYRVGQSSAGFNEGDVEAEIQKRDVQDTVVVESLDGGQTWGNMRLLSALTAKVSSISTGDTIFDGRGRFVTSGAGIQLQYGEHAGRLIVPISVDIDPKDSAKFINLAIYSDDHGQTWQAGIGTAGGAGFSGDVSKIVELSDGRLMMSSKDNDKPRWVSYSEDQGENWSTPKRKIIAPPQHPEKHNTGINVGLIRAYPNAPENSAAARVLLYSAPIDQRYSHKHTEDGRNNGWVMGSCDDGKTWSFGRQIEKNRFQYSSMTVMSDGNIGMVYESGDFSTGMNLKFAKFNMAWLGADCHSNEALGLTGDIDKEIVEAQEKAAEATKEAQEAAEKVQKLTEELAAARKENDELKNQVKGFKEAVGDLANEAEDLADKVFKLETAVTEAKEKATVAEKAASDAVTQLQKAESIAEEQKAKAESAAAEAQALREKLERLEGSILTVKENPEAEEIADLSSTAKDAADAARRAATDANGALSGQKQDEEKPAMGLMGILKVLAGIIPLVAIIATIFQTFRLPFNIPGMR
Question: For B1, which “glycan array binding signal (z-score)” value [1] is on record?
Answer: 0.122

Question: And the “glycan array binding signal (z-score)” value [2]?
Answer: -0.53

Question: What about the “glycan array binding signal (z-score)” value [3] of the same binder?
Answer: -0.077

Question: And the “glycan array binding signal (z-score)” value [4]?
Answer: 1

Question: And the “glycan array binding signal (z-score)” value [5]?
Answer: -0.021

Question: What about the “glycan array binding signal (z-score)” value [6] of the same binder?
Answer: -0.99

Question: What about the “glycan array binding signal (z-score)” value [7] of the same binder?
Answer: -0.6

Question: What about the “glycan array binding signal (z-score)” value [8] of the same binder?
Answer: 0.682

Question: What about the “glycan array binding signal (z-score)” value [9] of the same binder?
Answer: -2.99

Question: And the “glycan array binding signal (z-score)” value [10]?
Answer: -1.09

Question: And the “glycan array binding signal (z-score)” value [11]?
Answer: 0.818

Question: And the “glycan array binding signal (z-score)” value [12]?
Answer: -2.13

Question: What about the “glycan array binding signal (z-score)” value [13] of the same binder?
Answer: -1.87

Question: And the “glycan array binding signal (z-score)” value [14]?
Answer: -0.306

Question: And the “glycan array binding signal (z-score)” value (Neu5Ac(a2-6)GalNAc)?
Answer: -0.982

Question: And the “glycan array binding signal (z-score)” value [15]?
Answer: -1.17

Question: What about the “glycan array binding signal (z-score)” value [16] of the same binder?
Answer: -0.236

Question: And the “glycan array binding signal (z-score)” value [17]?
Answer: -0.915

Question: What about the “glycan array binding signal (z-score)” value (Neu5Ac(a2-8)Neu5Ac) of the same binder?
Answer: 0.174

Question: What about the “glycan array binding signal (z-score)” value [18] of the same binder?
Answer: 0.317

Question: What about the “glycan array binding signal (z-score)” value [19] of the same binder?
Answer: -1.02

Question: What about the “glycan array binding signal (z-score)” value [20] of the same binder?
Answer: 0.453

Question: What about the “glycan array binding signal (z-score)” value [21] of the same binder?
Answer: -0.188

Question: What about the “glycan array binding signal (z-score)” value [22] of the same binder?
Answer: -0.296

Question: And the “glycan array binding signal (z-score)” value [23]?
Answer: 0.272

Question: What about the “glycan array binding signal (z-score)” value [24] of the same binder?
Answer: -0.682

Question: What about the “glycan array binding signal (z-score)” value [25] of the same binder?
Answer: -0.496

Question: What about the “glycan array binding signal (z-score)” value [26] of the same binder?
Answer: 0.535

Question: What about the “glycan array binding signal (z-score)” value (Neu5Ac(b2-6)GalNAc) of the same binder?
Answer: -0.897

Question: And the “glycan array binding signal (z-score)” value [27]?
Answer: 1.84

Question: And the “glycan array binding signal (z-score)” value [28]?
Answer: 0.981

Question: What about the “glycan array binding signal (z-score)” value [29] of the same binder?
Answer: -0.031

Question: And the “glycan array binding signal (z-score)” value [30]?
Answer: 1.37

Question: What about the “glycan array binding signal (z-score)” value [31] of the same binder?
Answer: -0.62

Question: What about the “glycan array binding signal (z-score)” value (Neu5Gc(a2-3)Gal(b1-4)Glc) of the same binder?
Answer: 0.207

Question: And the “glycan array binding signal (z-score)” value [32]?
Answer: -0.068

Question: And the “glycan array binding signal (z-score)” value [33]?
Answer: -1.22

Question: And the “glycan array binding signal (z-score)” value [34]?
Answer: -1

Question: What about the “glycan array binding signal (z-score)” value (Neu5Gc(a2-6)GalNAc) of the same binder?
Answer: 0.15

Question: What about the “glycan array binding signal (z-score)” value [35] of the same binder?
Answer: -0.368
